From the supplement of paper PMC12823440, “Inhibitors supercharge kinase turnover through native proteolytic circuits” (Nature, 2025)
The other results are listed elsewhere or left out. The calls rarely recur for the same compound in another form.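 In K562 cells expressing nanoluciferase-fused kinases, luminescence was recorded at 4 h intervals between 2 and 18 h, normalized as percent of control with DMSO at 100% and a positive control at 0%. A significant (2 sigma) signal drop marks a time point as decreased. The authors' rule for a hit is not shown and takes in more than the number of time points.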

Sequences of proteins named here, by UniProt entry; tags and fusion partners are left off.
UniProt Q15118, whole entry, looked up: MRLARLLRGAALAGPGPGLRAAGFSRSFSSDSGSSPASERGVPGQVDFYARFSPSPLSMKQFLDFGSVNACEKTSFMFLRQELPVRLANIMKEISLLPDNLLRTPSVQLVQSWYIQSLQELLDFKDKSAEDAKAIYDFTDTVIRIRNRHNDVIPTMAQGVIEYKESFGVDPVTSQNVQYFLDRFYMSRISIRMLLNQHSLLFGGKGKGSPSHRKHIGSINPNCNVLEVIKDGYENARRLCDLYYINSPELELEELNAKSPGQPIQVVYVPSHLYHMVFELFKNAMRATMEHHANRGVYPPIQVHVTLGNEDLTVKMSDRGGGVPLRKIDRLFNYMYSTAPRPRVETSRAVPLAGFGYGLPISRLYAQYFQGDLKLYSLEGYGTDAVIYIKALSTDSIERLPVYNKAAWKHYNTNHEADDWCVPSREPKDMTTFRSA

Molecular target: PDK1 (UniProt Q15118)
Experiment: number of time points (of 5) at which kinase-Nluc abundance scored as decreased, DMSO-normalised (count); higher = more persistent destabilization
Settings: K562; 2-18 h

SMILES	number of time points
Cc1c(-c2ccc(C(N)=O)c3[nH]c4cc(C(C)(C)O)ccc4c23)cccc1-n1cnc2ccccc2c1=O (2.5 µM)	0
CC(C)(C)n1nc(Cc2ccccc2O)c2c(N)ncnc21 (10 µM)	0
C=CC(=O)N1C(=O)CC(c2ccc(F)cc2)Sc2ccccc21 (stereo not drawn) [GSK-3β inhibitor 3] (10 µM)	0
CCc1ccc(OCC(=O)Nc2ccc(F)c([N+](=O)[O-])c2)cc1 (10 µM)	0
CN(C)c1nc2c(Br)c(Br)c(Br)c(Br)c2[nH]1 (10 µM)	0
Nc1ncnc2c1c(-c1ccc(Oc3ccccc3)cc1)nn2C1CCN(CCOCCOCCOc2ccc3c(c2)CN(C2CCC(=O)NC2=O)C3=O)CC1 (stereo not drawn) (2.5 µM)	0
Cc1cnc(NC2CCOCC2)nc1-n1cnc(C(=O)N[C@H](CN)c2cc(F)cc(Cl)c2)c1 (10 µM)	0
FC(F)(F)c1ccc(/C=C/c2nc(COc3ccc(CCCCn4ccnn4)cc3)co2)cc1 [Mubritinib] (10 µM)	0
Cc1cc2sc(NC(=O)Cc3ccccc3)nc2cc1Cl (10 µM)	0
O=C(CNc1cccc(Cl)c1)NC1CCCN(c2ncnc3[nH]ccc23)C1 (stereo not drawn) (10 µM)	0
Oc1ccc(/C=C/c2cc(O)cc(F)c2)cc1 [Resveratrol analog 1] (10 µM)	0
CC/C(=N\NC(=O)c1ccnc(NCCCN2CCOCC2)c1)c1ccc(Cl)cc1O (2.5 µM)	0
O[C@@H]1CO[C@H]2[C@@H]1OC[C@H]2Oc1nc2nc(-c3ccc(-c4ccccc4)cc3)c(Cl)cc2[nH]1 (10 µM)	0
